The list shows only some results of the screen, not a fair sample: it gathers tests that were run many times, whatever their T/C, doses with no T/C, and many T/C values between a quarter and a half above the control. Further doses and runs are listed elsewhere. T/C: endpoint of the treated group in % of that of the vehicle group. Some doses have a count of surviving animals in place of a T/C: the source holds a T/C of zero for them, seemingly a mark for toxic or unscored doses. Some survivor counts are full or nearly so, which does not show that the dose was tolerated: survival well below the control is almost never listed, so the zero probably covers shortened survival too. Survivors were counted at the toxicity check, usually on the fifth day, unless a day is given; later deaths do not show. Schedules are NCI's codes, read here as Q, the interval in days (D) or hours (H), X, the number of doses. Some schedule codes hold Z or #, which are not explained here. For survival time, this PubChem deposit counts one and a half times the control or more as active, and values a quarter to a half above the control carry no call in these data; other NCI protocols may use other cut-offs. Some entries hold several experiments; the values are given in rising order. Some T/C values carry the count of animals alive at the toxicity check (mostly the fifth day); without a count, all were alive then.

For the test, the system named is P388 leukemia ip, CD2F1 mice, survival T/C. Description: NCI In Vivo Anticancer Drug Screen. Data for tumor model P388 Leukemia (intraperitoneal) in CD2F1 (CDF1) mice. The following applies: T/C endpoint: median survival time, higher T/C = longer survival.
The mark [1] stands for this setting: dose: 5.0 mg/kg/injection, schedule: Q04DX003 (ip), vehicle: saline with Tween-80.
Setting [2] is: dose: 50.0 mg/kg/injection, schedule: Q01DX009 (ip), vehicle: saline.
[3] abbreviates: dose: 100.0 mg/kg/injection, schedule: Q01DX009 (ip), vehicle: saline with Tween-80.
Setting [4] is: dose: 200.0 mg/kg/injection, schedule: Q01DX009 (ip), vehicle: Klucel (hydroxypropylcellulose) (HPC).
The mark [5] stands for this setting: dose: 25.0 mg/kg/injection, schedule: Q01DX009 (ip), vehicle: saline with Tween-80.
Where [6] appears, read: dose: 50.0 mg/kg/injection, schedule: Q01DX009 (ip), vehicle: saline with Tween-80.
Where [7] appears, read: dose: 75.0 mg/kg/injection, schedule: Q01DX005 (ip), vehicle: Klucel (hydroxypropylcellulose) (HPC).

Take `NC(=S)c1cn(C2OC(CO)C(O)C2O)c2ncnc(N)c12` (configuration not stated): the T/C was 127 and 145 % of control (dose: 1.25 mg/kg/injection, schedule: Q01DX009 (ip), vehicle: saline); 138 % of control (dose: 2.1 mg/kg/injection, schedule: Q01DX009 (ip), vehicle: saline with Tween-80); 131 % of control (dose: 2.5 mg/kg/injection, schedule: Q01DX009 (ip), vehicle: saline); 128 % of control (dose: 2.5 mg/kg/injection, schedule: Q04DX003 (ip), vehicle: saline with Tween-80); 145 % of control (dose: 3.3 mg/kg/injection, schedule: Q01DX009 (ip), vehicle: saline with Tween-80); 140 % of control (dose: 5.0 mg/kg/injection, schedule: Q01DX009 (ip), vehicle: saline). Moreover, under setting [1], the T/C is 133 % of control. Besides, the survivor count was 6 of 6 (dose: 3.3 mg/kg/injection, schedule: Q04DX003 (ip), vehicle: saline with Tween-80); 6 of 6 under setting [1]; 4 of 6 (dose: 7.5 mg/kg/injection, schedule: Q01DX009 (ip), vehicle: saline with Tween-80); 6 of 6 (dose: 7.5 mg/kg/injection, schedule: Q04DX003 (ip), vehicle: saline with Tween-80); 3 of 6 (dose: 10.0 mg/kg/injection, schedule: Q04DX003 (ip), vehicle: saline with Tween-80).

In the case of `Cc1cccc(N=NC2Sc3nc4ccccc4n3C2=O)c1` (configuration not stated), the survivor count (dose: 240.0 mg/kg/injection, schedule: Q01DX005 (ip), vehicle: Klucel (hydroxypropylcellulose) (HPC)) is 2 of 6.

As for `CCOc1ccc2nc3cc(I)ccc3c(N)c2c1`, the survivor count reads like this: (dose: 60.0 mg/kg/injection, schedule: Q01DX005 (ip), vehicle: saline with Tween-80) 5 of 6; (dose: 120.0 mg/kg/injection, schedule: Q01DX005 (ip), vehicle: saline with Tween-80) 0 of 6; (dose: 240.0 mg/kg/injection, schedule: Q01DX005 (ip), vehicle: saline with Tween-80) 0 of 6.

As for `CCCCCC(CN(C)C)C(=O)/C=C/c1ccc(Cl)c(Cl)c1` (configuration not stated), the survivor count under setting [2] was 0 of 6.

Take `CCOC(=N)c1cn(C2OC(CO)C(O)C2O)c2ncnc(N)c12` (configuration not stated): the T/C is 148 % of control (dose: 0.09 mg/kg/injection, schedule: Q01DX009 (ip), vehicle: saline); 145 % of control (dose: 0.13 mg/kg/injection, schedule: Q01DX009 (ip), vehicle: saline); 140 % of control [5 of 6 alive] (dose: 1.2 mg/kg/injection, schedule: Q04DX003 (ip), vehicle: saline); 140 % of control (dose: 1.8 mg/kg/injection, schedule: Q04DX003 (ip), vehicle: saline); 140 % of control (dose: 2.6 mg/kg/injection, schedule: Q04DX003 (ip), vehicle: saline). The survivor count (dose: 4.0 mg/kg/injection, schedule: Q01DX009 (ip), vehicle: saline) is 6 of 6 and the survivor count (dose: 4.0 mg/kg/injection, schedule: Q04DX003 (ip), vehicle: saline) is on record as 6 of 6.

Turning to `CCOC(=O)CCN(CCN(C)C)c1cc(O)c2c(c1O)C(=O)c1ccccc1C2=O`, the T/C is, setting by setting: (dose: 200.0 mg/kg/injection, schedule: Q01DX005 (ip), vehicle: saline with Tween-80) 133 % of control; (dose: 400.0 mg/kg/injection, schedule: Q01DX005 (ip), vehicle: saline with Tween-80) 136 % of control.

Take `O=C1c2ccccc2C(=O)N1CN1C(=O)c2ccccc2C1=O`: the survivor count under setting [3] is given as 3 of 6.

For the molecule `CCOS(=O)c1ccc(C)cc1` (configuration not stated), the survivor count runs as follows: (dose: 100.0 mg/kg/injection, schedule: Q01DX009 (ip), vehicle: Klucel (hydroxypropylcellulose) (HPC)) 3 of 6; under setting [4], 0 of 6.

In the case of `FC(F)(F)c1cccc(NC(=S)SCc2ccc(Cl)c(Cl)c2)c1`, the survivor count is listed as 6 of 6 under setting [2] and 2 of 6 (dose: 100.0 mg/kg/injection, schedule: Q01DX009 (ip), vehicle: suspension in saline).

For the molecule `COC(=O)c1nc2c(n(C)/c1=N/C(=O)Nc1ccccc1)CCCC2`, under setting [5], the T/C is 130 % of control. In addition, the survivor count is, setting by setting: under setting [6], 6 of 6; under setting [3], 4 of 6; (dose: 200.0 mg/kg/injection, schedule: Q01DX009 (ip), vehicle: saline with Tween-80) 0 of 6.

For `CCCCCC(=O)C(=O)c1ccc(O)c(C)c1O`, the survivor count under setting [4] is recorded as 6 of 6.

Regarding `CCCC(C(=O)OCCN(CC)CC)(c1ccccc1)c1ccccc1`, the survivor count by setting is: (dose: 100.0 mg/kg/injection, schedule: Q04DX003 (ip), vehicle: saline with Tween-80) 4 of 6; (dose: 200.0 mg/kg/injection, schedule: Q04DX003 (ip), vehicle: saline with Tween-80) 1 of 6; (dose: 400.0 mg/kg/injection, schedule: Q04DX003 (ip), vehicle: saline with Tween-80) 0 of 6.

`Cc1ccc(S(=O)(=O)N/N=C/c2ccncc2)cc1`: the T/C by setting is: (dose: 88.0 mg/kg/injection, schedule: Q01DX009 (ip), vehicle: other) 128 % of control; (dose: 133.0 mg/kg/injection, schedule: Q01DX009 (ip), vehicle: other) 131 % of control; (dose: 200.0 mg/kg/injection, schedule: Q01DX009 (ip), vehicle: other) 128 % of control; (dose: 300.0 mg/kg/injection, schedule: Q01DX009 (ip), vehicle: other) 131 % of control.

On to `CCCOc1ccc2c(NCCCCCCNc3c4ccccc4nc4cc(OCCC)ccc34)c3ccccc3nc2c1`, for which the T/C runs as follows: (dose: 0.31 mg/kg/injection, schedule: Q## X009 (ip), vehicle: lactic acid) 127 % of control; (dose: 1.25 mg/kg/injection, schedule: Q## X009 (ip), vehicle: lactic acid) 137 % of control. The survivor count (dose: 10.0 mg/kg/injection, schedule: Q## X009 (ip), vehicle: lactic acid) is given as 3 of 6 and the survivor count (dose: 20.0 mg/kg/injection, schedule: Q## X009 (ip), vehicle: lactic acid) is recorded as 0 of 6.

Regarding `Nc1nc(=S)c2n[nH]nc2[nH]1`, the T/C under setting [5] is 145 % of control. Besides, the survivor count was 2 of 6 under setting [6] and 5 of 6 under setting [3].

For the molecule `CC(O)c1cc2c(o1)C(=O)c1cccc(O)c1C2=O` (configuration not stated), the survivor count is, setting by setting: under setting [7], 1 of 5; (dose: 150.0 mg/kg/injection, schedule: Q01DX005 (ip), vehicle: Klucel (hydroxypropylcellulose) (HPC)) 0 of 5.

With `COC1=C(C)C(=O)C2=C(C1=O)[C@@H]1[C@@H]3Cc4c(OC(=O)CO)c(C)c(OC)c(O)c4[C@H](CNC(=O)C(C)=O)N3[C@@H](C#N)[C@H](C2)N1C`, the survivor count was 3 of 6 (dose: 4.5 mg/kg/injection, schedule: Q01DX005 (ip), vehicle: Klucel (hydroxypropylcellulose) (HPC)); 0 of 6 (dose: 9.0 mg/kg/injection, schedule: Q01DX005 (ip), vehicle: Klucel (hydroxypropylcellulose) (HPC)); 2 of 6 (dose: 9.38 mg/kg/injection, schedule: Q01DX005 (ip), vehicle: Klucel (hydroxypropylcellulose) (HPC)); 1 of 6 (dose: 18.75 mg/kg/injection, schedule: Q01DX005 (ip), vehicle: Klucel (hydroxypropylcellulose) (HPC)); 0 of 6 (dose: 37.5 mg/kg/injection, schedule: Q01DX005 (ip), vehicle: Klucel (hydroxypropylcellulose) (HPC)); 0 of 6 under setting [7]. For the same molecule, for the setting “dose: 5.0 mg/kg/injection, schedule: Q01DX005 (ip), vehicle: Klucel (hydroxypropylcellulose) (HPC)”, the T/C is 130 % of control.

For `CCN(CC)CCOc1ccccc1/C=C/c1noc2ccccc12`, the survivor count (dose: 120.0 mg/kg/injection, schedule: Q01DX005 (ip), vehicle: saline) is reported as 3 of 6 and the survivor count (dose: 240.0 mg/kg/injection, schedule: Q01DX005 (ip), vehicle: saline) is listed as 0 of 6.

On to `CCCCCN(CCCCC)CC(O)c1ccc(OC)c2ccccc12` (configuration not stated), for which, where the note is “dose: 200.0 mg/kg/injection, schedule: Q01DX005 (ip), vehicle: Klucel (hydroxypropylcellulose) (HPC)”, the survivor count is listed as 4 of 5.
